This note sets out measurements from the supplement of paper PMC11732987, “Enantioselective OTUD7B fragment discovery through chemoproteomics screening and high-throughput optimisation” (Communications Chemistry, 2025).

Sequences of proteins named here, by UniProt entry; tags and fusion partners are left off.
UniProt P54709, whole entry, looked up: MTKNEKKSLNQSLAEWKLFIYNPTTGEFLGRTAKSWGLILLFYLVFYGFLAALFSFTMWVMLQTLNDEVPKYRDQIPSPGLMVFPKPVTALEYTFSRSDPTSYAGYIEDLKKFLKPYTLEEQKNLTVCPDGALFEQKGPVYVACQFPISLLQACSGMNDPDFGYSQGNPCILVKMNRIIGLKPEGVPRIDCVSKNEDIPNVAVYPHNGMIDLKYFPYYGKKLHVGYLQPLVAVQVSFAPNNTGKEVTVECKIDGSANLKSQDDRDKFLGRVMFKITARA

Holding throughout (test): log2 mean competition ratio of IA-DTB cysteine labelling (DMSO/compound) (log2 ratio); higher = stronger cysteine engagement by compound
Settings in all cases: treatment time: 4 h, cell line lysate: HEK293T

One assay addresses ATP1A1 C428 (UniProt P05023). As to the method:
(§1)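 IA-DTB competitive cysteine chemoproteomics in HEK293T RIPA lysate. Lysates were treated with compound 29 or 30 at 50 or 200 µM for 4 h, then IA-DTB (500 µM, 1 h), trypsin-digested, NeutrAvidin-enriched and analysed by diaPASEF. Competition ratio = intensity DMSO / intensity compound (n=4 treated, n=64 DMSO); binding: mean log2 CR ≥ 1 and p ≤ 0.05 plus QC filters. Target is the cysteine site.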

The next assay concerns the target ATP1A1 C518 (UniProt P05023). On the procedure:
as §1

Another assay addresses ATP1A1 C663 (UniProt P05023). As to the method:
as §1

Another assay addresses ATP1A3 C221 (UniProt P13637). As to the method: as §1
In the next assay the target is ATP1A3 C449 (UniProt P13637). On the procedure:
as §1

Another assay addresses ATP1A3 C49 (UniProt P13637). On the procedure: as §1
Another assay concerns the target ATP1A3 C508 (UniProt P13637). On the procedure: as §1
A further assay has as its target ATP1B1 C213 (UniProt P05026). As to the method:
as §1

In a further assay the target is ATP1B3 C250 (UniProt P54709). As to the method: as §1

SMILES strings stand for the structures. Some of the results follow. The data scatter; read single values as rough.

As for `O=C(CCl)N[C@H]1CCCc2ccccc21`, the “log2 mean competition ratio” value is -0.0561 in the assay with ATP1A1 C428 (50 µM); 0.0751 with ATP1A1 C428 (200 µM); 0.303 with ATP1A1 C518 (50 µM); -0.152 in the assay with ATP1A1 C518 (200 µM); 0.268 with ATP1A1 C663 (50 µM); -0.328 with ATP1A1 C663 (200 µM). For the same molecule, the “log2 mean competition ratio” value with ATP1A3 C221 (50 µM) was -0.727; with ATP1A3 C221 (200 µM), -0.198; with ATP1A3 C449 (50 µM) it was -0.0698; in the assay with ATP1A3 C449 (200 µM) it was 0.0901; with ATP1A3 C49 (50 µM), -0.0887; in the assay with ATP1A3 C49 (200 µM) it was -0.0405. The “log2 mean competition ratio” value with ATP1A3 C508 (50 µM) was 0.407; in the assay with ATP1A3 C508 (200 µM), 0.0186; with ATP1B1 C213 (50 µM), 0.425; with ATP1B1 C213 (200 µM), 0.0283; with ATP1B3 C250 (50 µM), -0.176; with ATP1B3 C250 (200 µM), 0.225.
`O=C(CCl)N[C@@H]1CCCc2ccccc21`: the “log2 mean competition ratio” value is -0.229 in the assay with ATP1A1 C428 (50 µM); 0.0137 with ATP1A1 C428 (200 µM); -0.0286 in the assay with ATP1A1 C518 (50 µM); 0.0601 in the assay with ATP1A1 C518 (200 µM); 0.0763 in the assay with ATP1A1 C663 (50 µM); -0.435 with ATP1A1 C663 (200 µM). The “log2 mean competition ratio” value with ATP1A3 C221 (50 µM) is -0.467; with ATP1A3 C221 (200 µM) it was -0.141; in the assay with ATP1A3 C449 (50 µM), -0.214; with ATP1A3 C449 (200 µM) it was -0.0264; in the assay with ATP1A3 C49 (50 µM), 0.343; with ATP1A3 C49 (200 µM), 0.0822. Besides, the “log2 mean competition ratio” value with ATP1A3 C508 (50 µM) is 0.256; with ATP1A3 C508 (200 µM), -0.191; with ATP1B1 C213 (50 µM), -0.304; in the assay with ATP1B1 C213 (200 µM), -0.154; with ATP1B3 C250 (50 µM), -0.188; with ATP1B3 C250 (200 µM), 0.13.
